Experimental data taken from publication PMC12383145 (Antibiotics, 2025).

Experiment: general procedure: Fmoc solid-phase peptide synthesis; Rink amide MBHA resin (0.46 meq/g); DCC/6-Cl-HOBt; TBTU/DIPEA for probes
Conditions: whole synthesis, scale of the general procedure 150 mg resin

## (RRWQWR-hF-KKLG)2K-Ahx
210 nm
  final HPLC purity: 97.2%

## (RhB-RRWQWR-hF-KKLG)2K-Ahx
210 nm
  final HPLC purity: 98.4%

## PEPTIDE1{R.W.Q.W.R.W.Q.W.R.[2-Abz].[am]}$$$$V2.0
210 nm
  final HPLC purity: 88.4%
RP-HPLC
  crude HPLC purity: 24.0%
  final HPLC purity: 85.5%

## PEPTIDE1{R.W.Q.W.R.W.Q.W.R.[am]}$$$$V2.0
210 nm
  final HPLC purity: 93.1%

## PEPTIDE1{[2-Abz].R.W.Q.W.R.W.Q.W.R.[am]}$$$$V2.0
210 nm
  final HPLC purity: 89.7%

HELM strings list residues between dots; [ac] is acetyl, [am] amide, other brackets name non-standard units.
